The targets with a hit were mostly taken out for another list; the other results follow. The data scatter; read single values as rough. The entries are a selection whose mix differs from that of the whole data set.
Compound: COC(=O)/C=C/c1ccccc1 [methyl cinnamate]
Assay: log2 ratio of iodoacetamide-alkyne labeling of the cysteine site, DMSO over compound (competition); higher = stronger covalent engagement of the cysteine by the compound, active = 1 or more
Settings: 500 µM; treatment time 1 h; system: HEK293T cell lysate
Procedure, shortened: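 After 1 h at ambient temperature with vehicle or electrophile (500 µM), HEK293T lysate (2 mg/mL) was labelled for 1 h with iodoacetamide alkyne and clicked to sCIP-TMT reagents. Pooled samples were trypsin-digested overnight at 37 °C, streptavidin-enriched, acid-eluted and analysed by Orbitrap Eclipse LC-MS/MS with FAIMS, then quantified in FragPipe over three replicates with duplicate channels. A cysteine's log2 competition ratio is its mean control-channel over mean compound-channel reporter intensity. Cysteines quantified in only one replicate were not included.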

Amino acid sequences for entries named in this document (tags omitted). A change or cut given only in a name is not applied to a line headed by its entry.
UniProt Q96FZ5: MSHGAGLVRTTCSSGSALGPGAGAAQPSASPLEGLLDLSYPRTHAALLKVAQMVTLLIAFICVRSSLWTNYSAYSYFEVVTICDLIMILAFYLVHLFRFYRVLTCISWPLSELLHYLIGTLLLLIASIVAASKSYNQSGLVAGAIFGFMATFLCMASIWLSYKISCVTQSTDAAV
UniProt Q969Y2: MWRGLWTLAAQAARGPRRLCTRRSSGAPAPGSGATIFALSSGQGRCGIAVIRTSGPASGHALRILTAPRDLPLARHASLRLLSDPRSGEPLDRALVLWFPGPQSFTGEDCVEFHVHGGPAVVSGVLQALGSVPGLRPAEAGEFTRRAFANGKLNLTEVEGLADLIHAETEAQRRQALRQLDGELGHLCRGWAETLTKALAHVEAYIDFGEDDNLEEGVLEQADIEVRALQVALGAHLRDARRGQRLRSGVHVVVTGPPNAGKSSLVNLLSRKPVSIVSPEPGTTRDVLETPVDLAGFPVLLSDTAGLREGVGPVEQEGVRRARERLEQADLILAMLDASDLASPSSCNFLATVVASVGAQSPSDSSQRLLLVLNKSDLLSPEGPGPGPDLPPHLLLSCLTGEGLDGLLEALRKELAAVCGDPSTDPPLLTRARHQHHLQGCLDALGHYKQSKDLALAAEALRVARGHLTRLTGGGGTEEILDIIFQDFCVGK
UniProt Q96AT9: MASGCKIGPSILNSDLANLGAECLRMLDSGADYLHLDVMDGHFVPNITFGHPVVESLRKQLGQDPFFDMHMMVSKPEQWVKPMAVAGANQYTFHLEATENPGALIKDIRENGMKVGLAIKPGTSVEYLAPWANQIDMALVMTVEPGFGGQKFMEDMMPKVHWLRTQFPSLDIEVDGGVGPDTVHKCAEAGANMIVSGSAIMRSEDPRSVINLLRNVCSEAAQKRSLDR
UniProt Q96FV9: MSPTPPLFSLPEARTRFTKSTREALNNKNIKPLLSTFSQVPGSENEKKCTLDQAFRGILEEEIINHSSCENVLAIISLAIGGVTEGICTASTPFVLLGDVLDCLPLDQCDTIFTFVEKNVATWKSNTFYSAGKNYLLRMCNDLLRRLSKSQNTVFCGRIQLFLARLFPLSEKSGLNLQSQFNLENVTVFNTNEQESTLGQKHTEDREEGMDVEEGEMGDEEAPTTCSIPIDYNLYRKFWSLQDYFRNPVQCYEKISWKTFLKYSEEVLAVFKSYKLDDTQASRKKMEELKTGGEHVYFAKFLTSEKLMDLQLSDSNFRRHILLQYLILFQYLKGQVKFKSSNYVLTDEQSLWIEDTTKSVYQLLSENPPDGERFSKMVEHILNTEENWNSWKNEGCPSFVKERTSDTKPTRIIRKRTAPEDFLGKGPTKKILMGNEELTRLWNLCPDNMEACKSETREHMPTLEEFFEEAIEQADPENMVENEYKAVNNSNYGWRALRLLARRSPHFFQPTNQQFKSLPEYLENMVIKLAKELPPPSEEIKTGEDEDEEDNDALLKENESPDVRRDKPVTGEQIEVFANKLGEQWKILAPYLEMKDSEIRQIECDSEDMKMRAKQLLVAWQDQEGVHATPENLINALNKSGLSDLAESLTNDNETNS
UniProt Q96EM0: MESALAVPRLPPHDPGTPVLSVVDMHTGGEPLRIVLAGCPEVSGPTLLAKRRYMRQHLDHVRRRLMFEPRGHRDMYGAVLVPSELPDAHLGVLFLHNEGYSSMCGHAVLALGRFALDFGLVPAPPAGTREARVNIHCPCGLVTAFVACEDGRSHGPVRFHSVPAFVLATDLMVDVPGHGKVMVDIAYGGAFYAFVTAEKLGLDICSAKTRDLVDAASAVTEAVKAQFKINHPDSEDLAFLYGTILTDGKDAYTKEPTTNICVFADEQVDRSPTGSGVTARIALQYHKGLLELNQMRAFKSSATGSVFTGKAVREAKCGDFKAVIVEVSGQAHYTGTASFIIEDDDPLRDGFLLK
UniProt Q96F86: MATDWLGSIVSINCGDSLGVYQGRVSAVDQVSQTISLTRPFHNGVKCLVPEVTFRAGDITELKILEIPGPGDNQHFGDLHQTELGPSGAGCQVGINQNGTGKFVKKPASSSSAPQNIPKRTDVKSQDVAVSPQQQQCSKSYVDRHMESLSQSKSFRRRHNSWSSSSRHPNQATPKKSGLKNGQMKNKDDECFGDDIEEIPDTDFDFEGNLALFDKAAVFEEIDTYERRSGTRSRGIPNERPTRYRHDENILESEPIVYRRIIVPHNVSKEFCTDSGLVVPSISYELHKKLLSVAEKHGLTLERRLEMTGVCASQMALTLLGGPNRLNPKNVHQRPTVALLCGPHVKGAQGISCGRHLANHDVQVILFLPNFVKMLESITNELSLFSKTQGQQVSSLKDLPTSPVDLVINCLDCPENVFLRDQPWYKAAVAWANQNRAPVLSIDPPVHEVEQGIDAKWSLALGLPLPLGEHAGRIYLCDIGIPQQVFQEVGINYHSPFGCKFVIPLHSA
UniProt Q96GX2: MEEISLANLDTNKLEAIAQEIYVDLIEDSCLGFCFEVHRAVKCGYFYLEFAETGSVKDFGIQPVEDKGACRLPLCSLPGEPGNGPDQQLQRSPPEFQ
UniProt Q96B54: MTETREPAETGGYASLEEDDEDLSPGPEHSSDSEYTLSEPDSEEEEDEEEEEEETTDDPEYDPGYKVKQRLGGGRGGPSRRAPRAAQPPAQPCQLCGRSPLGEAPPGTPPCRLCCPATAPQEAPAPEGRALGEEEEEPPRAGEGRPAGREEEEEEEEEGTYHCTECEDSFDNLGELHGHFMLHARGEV
UniProt Q96AB3: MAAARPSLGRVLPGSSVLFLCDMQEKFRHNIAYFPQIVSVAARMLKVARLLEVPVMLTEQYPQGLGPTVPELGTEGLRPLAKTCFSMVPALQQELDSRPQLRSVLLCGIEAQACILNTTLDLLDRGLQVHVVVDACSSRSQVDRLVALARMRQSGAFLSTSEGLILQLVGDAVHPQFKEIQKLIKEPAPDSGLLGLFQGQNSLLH
UniProt Q969M7: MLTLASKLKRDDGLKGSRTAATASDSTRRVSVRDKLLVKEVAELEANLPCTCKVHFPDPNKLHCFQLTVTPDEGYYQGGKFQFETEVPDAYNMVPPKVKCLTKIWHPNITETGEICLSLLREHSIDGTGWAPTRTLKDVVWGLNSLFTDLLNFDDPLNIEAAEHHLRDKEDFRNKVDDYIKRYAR
UniProt Q92947: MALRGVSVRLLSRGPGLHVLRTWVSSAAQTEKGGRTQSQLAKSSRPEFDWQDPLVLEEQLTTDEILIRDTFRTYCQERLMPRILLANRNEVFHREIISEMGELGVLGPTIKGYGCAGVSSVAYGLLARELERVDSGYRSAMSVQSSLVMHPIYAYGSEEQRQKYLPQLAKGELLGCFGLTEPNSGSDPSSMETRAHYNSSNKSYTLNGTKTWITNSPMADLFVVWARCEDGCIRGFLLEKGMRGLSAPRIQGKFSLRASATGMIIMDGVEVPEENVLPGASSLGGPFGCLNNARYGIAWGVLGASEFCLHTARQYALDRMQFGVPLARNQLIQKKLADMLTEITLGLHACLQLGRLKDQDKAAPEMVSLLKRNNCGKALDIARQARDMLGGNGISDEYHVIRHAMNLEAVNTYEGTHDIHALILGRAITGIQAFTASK
UniProt Q96GM5, whole entry, looked up: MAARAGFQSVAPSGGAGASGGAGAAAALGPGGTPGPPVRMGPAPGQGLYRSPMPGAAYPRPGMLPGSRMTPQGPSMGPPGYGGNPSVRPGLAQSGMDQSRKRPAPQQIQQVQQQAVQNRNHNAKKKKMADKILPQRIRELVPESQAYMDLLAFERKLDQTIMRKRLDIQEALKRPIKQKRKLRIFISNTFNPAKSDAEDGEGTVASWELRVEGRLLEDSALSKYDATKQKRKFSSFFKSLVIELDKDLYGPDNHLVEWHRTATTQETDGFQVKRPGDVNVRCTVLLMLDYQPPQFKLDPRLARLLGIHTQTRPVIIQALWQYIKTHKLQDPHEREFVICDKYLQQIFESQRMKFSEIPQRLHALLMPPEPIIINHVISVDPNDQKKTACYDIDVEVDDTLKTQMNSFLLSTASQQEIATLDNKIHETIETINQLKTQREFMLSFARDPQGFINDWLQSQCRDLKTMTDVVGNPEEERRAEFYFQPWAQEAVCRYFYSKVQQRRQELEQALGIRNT
UniProt Q93009, whole entry, looked up: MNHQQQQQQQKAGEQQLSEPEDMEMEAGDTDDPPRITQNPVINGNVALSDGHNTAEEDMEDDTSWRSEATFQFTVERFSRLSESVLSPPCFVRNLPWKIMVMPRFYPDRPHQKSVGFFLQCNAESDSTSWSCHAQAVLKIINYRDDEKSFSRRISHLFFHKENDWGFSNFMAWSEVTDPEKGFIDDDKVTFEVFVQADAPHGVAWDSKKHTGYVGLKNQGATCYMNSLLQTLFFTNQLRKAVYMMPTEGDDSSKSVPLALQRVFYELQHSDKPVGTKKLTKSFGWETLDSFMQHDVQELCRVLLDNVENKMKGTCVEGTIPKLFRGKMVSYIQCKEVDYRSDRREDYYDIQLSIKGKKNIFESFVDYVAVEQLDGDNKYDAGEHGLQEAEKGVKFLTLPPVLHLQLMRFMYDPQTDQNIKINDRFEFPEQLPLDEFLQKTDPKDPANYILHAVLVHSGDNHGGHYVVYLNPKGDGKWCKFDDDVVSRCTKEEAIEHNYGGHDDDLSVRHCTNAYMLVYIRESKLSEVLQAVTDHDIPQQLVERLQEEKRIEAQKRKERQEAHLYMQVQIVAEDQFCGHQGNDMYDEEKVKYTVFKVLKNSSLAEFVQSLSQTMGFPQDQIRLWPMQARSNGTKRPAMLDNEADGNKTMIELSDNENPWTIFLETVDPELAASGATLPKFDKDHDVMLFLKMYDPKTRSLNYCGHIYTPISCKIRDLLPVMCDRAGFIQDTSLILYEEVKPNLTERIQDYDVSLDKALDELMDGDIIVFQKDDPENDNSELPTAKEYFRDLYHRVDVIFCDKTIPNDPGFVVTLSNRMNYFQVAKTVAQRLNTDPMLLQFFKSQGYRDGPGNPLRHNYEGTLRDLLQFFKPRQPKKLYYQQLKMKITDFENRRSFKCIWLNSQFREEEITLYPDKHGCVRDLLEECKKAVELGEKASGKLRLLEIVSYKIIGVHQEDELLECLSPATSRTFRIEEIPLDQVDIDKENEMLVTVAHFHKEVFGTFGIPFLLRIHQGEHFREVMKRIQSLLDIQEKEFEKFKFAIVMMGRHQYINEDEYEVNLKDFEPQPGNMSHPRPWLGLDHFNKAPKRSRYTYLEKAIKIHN
UniProt Q92615, whole entry, looked up: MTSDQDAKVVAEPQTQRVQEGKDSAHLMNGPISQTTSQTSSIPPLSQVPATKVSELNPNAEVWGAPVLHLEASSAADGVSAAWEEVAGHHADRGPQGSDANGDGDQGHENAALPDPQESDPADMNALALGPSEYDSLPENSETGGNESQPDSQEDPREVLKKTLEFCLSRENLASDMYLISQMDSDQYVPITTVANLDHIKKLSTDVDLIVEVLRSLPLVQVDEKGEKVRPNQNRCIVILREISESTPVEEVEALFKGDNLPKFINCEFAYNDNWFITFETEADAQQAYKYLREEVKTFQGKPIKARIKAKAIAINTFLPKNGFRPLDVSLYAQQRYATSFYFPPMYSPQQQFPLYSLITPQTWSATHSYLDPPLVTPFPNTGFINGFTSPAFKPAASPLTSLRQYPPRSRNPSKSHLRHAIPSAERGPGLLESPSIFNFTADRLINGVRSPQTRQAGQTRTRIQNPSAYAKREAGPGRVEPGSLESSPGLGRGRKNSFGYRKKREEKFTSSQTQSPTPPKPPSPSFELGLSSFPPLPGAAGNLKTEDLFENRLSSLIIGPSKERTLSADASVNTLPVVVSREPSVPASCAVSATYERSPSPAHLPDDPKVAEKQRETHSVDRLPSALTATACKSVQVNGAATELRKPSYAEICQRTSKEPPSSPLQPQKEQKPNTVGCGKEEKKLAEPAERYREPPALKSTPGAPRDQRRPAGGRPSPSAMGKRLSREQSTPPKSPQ
UniProt Q93052: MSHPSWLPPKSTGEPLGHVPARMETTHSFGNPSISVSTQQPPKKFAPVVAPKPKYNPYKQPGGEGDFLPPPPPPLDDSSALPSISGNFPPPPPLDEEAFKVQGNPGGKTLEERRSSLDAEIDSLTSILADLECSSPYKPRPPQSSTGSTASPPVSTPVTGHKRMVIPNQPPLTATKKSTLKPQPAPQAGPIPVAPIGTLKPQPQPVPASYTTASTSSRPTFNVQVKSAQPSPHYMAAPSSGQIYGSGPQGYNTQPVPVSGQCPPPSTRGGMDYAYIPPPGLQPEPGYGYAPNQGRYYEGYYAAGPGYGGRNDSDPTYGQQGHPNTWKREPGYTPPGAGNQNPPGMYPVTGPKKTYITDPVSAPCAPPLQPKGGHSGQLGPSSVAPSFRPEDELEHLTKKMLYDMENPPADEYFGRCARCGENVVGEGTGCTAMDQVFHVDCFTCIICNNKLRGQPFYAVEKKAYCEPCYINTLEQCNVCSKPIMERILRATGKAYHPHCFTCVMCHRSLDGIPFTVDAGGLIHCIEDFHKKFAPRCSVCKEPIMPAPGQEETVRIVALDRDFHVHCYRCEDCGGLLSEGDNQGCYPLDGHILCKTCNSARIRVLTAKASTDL

log2 ratio of iodoacetamide-alkyne labeling, inactive:
UniProt Q96FZ5_C12 0.172, GTPBP3 C489 (UniProt Q969Y2) -0.223, RPE C23 (UniProt Q96AT9) -0.0035, THOC1 C396 (UniProt Q96FV9) 0.227, UniProt Q96EM0_C39 0.0607, AKAP1 C389 (UniProt Q92667) 0.59, GBF1 C1272 (UniProt Q92538) 0.0974, EDC3 C47 (UniProt Q96F86) 0.205, ATXN7L3B C75 (UniProt Q96GX2) 0.114, UniProt Q92841_C584 0.176, USP9X C842 (UniProt Q93008) 0.147, PDLIM5 C449 (UniProt Q96HC4) 0.227, NUP205 C1662 (UniProt Q92621) 0.035, PTCD3 C642 (UniProt Q96EY7) 0.278, POM121 C217 (UniProt Q96HA1) 0.197, KHSRP C436 (UniProt Q92945) 0.148, ZNF428 C96 (UniProt Q96B54) 0.251, CLP1 C338 (UniProt Q92989) 0.334, CCDC97 C136 (UniProt Q96F63) 0.139, DHX38 C27 (UniProt Q92620) 0.345, CCDC97 C218 (UniProt Q96F63) 0.234, EFHD2 C53 (UniProt Q96C19) 0.374, ZC3HAV1L C7 (UniProt Q96H79) -0.158, ISOC2 C84 (UniProt Q96AB3) 0.14, UBE2F C116 (UniProt Q969M7) -0.0715, AKAP1 C147 (UniProt Q92667) 0.26, UniProt Q96CS4_C70 0.21, GCDH C115 (UniProt Q92947) -0.194, SMARCD1 C460 (UniProt Q96GM5) -0.107, USP9X C1061 (UniProt Q93008) 0.161, OTUB1 C91 (UniProt Q96FW1) 0.0768, CCDC47 C214 (UniProt Q96A33) 0.393, ANP32B C123 (UniProt Q92688) 0.136, USP7 C315 (UniProt Q93009) 0.359, UniProt Q92615_C654 0.419, TMCO6 C57 (UniProt Q96DC7) 0.13, LPP C364 (UniProt Q93052) 0.26
